Laboratory results taken from PMC6197854.
No constants are given. Whether binding was seen depends on the method and setting. Some results given as binding are weak or reduced against the parent protein; the word gives no strength. For some of these results: Where a sequence is shown, tags or fusion partners need not be part of it.

Protein sequences, listed by entry. Tags and fused reporters are not part of them. Residues count along the entry.
UniProt Q9NSA1, residues 29-209: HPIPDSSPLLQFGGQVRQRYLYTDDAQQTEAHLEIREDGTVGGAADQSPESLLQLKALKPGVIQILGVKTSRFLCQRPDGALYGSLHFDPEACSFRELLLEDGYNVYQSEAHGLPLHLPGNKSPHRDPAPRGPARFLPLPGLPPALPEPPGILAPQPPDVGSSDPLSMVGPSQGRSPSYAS
UniProt Q00604, residues 25-133: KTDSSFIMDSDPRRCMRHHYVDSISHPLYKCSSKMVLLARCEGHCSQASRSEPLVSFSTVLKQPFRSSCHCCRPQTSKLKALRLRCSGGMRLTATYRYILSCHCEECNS
UniProt Q8BSQ9: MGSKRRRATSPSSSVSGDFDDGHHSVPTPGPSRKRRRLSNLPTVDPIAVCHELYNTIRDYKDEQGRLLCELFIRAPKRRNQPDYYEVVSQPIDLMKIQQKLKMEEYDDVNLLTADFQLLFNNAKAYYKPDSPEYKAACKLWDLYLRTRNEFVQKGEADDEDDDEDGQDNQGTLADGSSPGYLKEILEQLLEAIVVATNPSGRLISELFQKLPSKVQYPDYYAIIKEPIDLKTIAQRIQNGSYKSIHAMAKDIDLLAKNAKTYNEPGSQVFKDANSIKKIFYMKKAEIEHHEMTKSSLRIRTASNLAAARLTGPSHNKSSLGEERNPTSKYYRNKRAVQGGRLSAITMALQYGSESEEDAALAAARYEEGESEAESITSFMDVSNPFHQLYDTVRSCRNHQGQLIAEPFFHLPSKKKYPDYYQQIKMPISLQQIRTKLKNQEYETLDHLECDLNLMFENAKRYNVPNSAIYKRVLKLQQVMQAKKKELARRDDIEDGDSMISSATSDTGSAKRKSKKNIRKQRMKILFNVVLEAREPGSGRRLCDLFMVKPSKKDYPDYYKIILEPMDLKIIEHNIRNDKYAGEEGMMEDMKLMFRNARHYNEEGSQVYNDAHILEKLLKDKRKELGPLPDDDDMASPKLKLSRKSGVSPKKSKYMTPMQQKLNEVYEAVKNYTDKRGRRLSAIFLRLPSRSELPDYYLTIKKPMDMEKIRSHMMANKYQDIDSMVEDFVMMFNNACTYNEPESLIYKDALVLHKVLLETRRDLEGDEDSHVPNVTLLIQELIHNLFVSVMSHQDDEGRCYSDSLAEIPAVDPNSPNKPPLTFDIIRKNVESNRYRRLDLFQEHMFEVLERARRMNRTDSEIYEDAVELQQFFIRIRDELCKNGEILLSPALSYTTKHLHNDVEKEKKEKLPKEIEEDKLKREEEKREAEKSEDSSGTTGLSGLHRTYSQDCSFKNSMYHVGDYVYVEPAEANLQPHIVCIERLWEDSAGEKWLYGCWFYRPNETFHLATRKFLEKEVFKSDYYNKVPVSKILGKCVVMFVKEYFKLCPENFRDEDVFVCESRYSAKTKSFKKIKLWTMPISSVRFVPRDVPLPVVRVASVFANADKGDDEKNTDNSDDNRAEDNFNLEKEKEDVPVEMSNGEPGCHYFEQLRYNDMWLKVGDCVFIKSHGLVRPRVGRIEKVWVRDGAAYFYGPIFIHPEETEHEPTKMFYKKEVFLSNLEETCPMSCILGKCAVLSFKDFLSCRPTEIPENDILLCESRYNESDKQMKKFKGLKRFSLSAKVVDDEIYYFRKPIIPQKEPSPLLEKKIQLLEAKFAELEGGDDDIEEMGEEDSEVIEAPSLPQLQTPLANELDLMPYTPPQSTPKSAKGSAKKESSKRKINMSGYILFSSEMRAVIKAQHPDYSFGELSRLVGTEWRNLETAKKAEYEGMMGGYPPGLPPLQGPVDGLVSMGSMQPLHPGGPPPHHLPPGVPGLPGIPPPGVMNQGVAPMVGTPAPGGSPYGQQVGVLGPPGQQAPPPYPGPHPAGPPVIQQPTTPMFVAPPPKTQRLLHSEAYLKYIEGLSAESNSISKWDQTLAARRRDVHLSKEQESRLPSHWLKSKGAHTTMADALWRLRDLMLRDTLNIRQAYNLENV
UniProt Q80YX1, residues 23-2110: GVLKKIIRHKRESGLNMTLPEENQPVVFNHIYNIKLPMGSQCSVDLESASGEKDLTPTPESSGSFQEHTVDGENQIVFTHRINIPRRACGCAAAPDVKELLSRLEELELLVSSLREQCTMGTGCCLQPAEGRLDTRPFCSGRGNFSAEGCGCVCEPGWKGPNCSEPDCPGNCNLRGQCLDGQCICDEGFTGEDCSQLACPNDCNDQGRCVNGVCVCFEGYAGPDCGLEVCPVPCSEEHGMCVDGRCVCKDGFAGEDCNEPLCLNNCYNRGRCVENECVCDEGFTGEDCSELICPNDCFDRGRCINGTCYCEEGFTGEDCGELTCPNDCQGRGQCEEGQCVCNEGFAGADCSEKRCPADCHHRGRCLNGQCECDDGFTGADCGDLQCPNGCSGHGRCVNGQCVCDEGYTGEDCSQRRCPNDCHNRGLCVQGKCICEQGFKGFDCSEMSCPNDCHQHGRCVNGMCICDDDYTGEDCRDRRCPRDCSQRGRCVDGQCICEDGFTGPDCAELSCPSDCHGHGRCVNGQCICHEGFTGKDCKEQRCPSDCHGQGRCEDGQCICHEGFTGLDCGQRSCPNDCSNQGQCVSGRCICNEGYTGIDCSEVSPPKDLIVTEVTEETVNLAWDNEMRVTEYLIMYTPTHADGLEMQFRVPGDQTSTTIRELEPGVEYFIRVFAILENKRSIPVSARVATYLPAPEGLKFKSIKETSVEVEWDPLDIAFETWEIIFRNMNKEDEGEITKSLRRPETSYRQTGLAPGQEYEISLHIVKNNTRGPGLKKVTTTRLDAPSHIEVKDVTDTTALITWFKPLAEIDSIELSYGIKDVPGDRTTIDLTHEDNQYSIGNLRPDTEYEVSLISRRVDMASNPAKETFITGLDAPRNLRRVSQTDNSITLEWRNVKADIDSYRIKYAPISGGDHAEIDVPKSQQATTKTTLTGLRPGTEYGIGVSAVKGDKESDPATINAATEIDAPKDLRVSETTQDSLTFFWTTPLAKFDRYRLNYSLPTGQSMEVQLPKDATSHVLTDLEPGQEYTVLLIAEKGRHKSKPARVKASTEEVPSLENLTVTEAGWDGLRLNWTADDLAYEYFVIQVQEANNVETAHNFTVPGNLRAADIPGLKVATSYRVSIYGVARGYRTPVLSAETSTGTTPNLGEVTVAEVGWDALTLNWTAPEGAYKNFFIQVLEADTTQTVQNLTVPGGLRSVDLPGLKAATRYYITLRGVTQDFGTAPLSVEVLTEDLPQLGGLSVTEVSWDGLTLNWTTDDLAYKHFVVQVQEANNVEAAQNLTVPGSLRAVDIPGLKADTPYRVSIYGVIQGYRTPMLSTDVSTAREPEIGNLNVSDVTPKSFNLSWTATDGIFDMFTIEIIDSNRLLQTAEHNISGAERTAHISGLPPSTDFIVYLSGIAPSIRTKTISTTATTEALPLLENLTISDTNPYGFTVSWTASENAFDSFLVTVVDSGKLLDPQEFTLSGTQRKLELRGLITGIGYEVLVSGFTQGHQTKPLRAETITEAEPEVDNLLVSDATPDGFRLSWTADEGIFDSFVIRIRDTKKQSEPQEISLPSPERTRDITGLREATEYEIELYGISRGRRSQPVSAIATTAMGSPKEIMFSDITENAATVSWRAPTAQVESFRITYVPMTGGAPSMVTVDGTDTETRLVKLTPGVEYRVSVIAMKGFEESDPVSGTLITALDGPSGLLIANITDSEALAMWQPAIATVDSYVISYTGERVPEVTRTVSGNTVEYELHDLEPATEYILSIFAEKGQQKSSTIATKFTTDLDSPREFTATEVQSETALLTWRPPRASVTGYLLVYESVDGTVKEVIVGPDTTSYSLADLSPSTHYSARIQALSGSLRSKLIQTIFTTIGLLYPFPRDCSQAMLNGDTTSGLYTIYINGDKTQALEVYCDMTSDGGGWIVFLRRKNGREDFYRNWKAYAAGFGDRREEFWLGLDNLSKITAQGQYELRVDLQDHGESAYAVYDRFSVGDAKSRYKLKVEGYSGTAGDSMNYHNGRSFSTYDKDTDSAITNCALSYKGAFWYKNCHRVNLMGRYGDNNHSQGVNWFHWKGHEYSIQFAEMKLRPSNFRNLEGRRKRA
UniProt Q80Z71, residues 27-1560: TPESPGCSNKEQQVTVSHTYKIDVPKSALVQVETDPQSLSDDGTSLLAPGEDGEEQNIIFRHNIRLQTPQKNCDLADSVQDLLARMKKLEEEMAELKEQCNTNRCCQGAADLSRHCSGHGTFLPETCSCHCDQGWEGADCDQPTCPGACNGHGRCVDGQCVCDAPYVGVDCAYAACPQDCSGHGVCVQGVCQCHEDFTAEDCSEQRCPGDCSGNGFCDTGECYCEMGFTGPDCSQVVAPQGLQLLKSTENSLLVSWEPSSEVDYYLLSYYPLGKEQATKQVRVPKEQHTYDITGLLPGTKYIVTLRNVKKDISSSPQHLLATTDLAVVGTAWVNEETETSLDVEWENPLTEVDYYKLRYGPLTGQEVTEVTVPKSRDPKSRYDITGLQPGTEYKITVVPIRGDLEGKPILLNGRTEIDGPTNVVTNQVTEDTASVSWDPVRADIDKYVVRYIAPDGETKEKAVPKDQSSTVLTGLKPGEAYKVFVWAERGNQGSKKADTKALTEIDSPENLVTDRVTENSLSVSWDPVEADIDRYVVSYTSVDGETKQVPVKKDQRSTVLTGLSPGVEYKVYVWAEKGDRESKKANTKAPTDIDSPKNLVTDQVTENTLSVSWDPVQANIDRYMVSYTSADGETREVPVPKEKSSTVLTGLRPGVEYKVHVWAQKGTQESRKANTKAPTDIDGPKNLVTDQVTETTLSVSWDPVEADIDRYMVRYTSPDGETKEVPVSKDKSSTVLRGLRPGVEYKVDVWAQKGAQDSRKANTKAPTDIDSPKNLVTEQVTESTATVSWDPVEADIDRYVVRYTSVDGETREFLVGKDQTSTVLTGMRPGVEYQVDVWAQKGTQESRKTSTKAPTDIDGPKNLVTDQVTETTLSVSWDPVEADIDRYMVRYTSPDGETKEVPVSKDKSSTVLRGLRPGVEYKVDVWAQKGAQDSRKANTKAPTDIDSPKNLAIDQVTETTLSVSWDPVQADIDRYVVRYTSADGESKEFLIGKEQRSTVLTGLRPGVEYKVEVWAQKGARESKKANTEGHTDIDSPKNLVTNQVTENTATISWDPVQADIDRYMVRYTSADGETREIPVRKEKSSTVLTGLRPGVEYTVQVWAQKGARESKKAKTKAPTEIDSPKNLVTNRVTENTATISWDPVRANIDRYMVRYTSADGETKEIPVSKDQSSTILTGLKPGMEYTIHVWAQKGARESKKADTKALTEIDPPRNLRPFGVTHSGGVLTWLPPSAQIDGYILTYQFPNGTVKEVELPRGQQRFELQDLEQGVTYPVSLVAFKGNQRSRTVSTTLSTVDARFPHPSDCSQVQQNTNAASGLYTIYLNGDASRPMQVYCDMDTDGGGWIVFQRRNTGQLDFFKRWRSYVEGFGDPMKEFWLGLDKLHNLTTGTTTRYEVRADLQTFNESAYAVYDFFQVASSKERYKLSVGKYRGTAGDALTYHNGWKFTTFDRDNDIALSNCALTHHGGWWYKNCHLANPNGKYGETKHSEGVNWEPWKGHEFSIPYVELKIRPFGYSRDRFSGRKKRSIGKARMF

What was measured:
FLRT3-Fc (mouse) = target: T1, FLRT3-Fc (mouse) (UniProt Q8BGT1); assay: ACAPseq (affinity capture of polyribosomes followed by RNAseq); bait-Fc (~10 ug) on Protein-G magnetic beads; 40 ug neonatal mouse brain polyribosomes in 600 ul binding buffer (25 mM Tris pH 7.5, 150 mM KCl, 15 mM MgCl2, 1 mM CaCl2, 250 mM sucrose, 0.5% Igepal-630, 0.5% sodium deoxycholate, cyclohexamide, heparin), overnight at 4°C; captured mRNA sequenced; only the target purified
T1 sequence: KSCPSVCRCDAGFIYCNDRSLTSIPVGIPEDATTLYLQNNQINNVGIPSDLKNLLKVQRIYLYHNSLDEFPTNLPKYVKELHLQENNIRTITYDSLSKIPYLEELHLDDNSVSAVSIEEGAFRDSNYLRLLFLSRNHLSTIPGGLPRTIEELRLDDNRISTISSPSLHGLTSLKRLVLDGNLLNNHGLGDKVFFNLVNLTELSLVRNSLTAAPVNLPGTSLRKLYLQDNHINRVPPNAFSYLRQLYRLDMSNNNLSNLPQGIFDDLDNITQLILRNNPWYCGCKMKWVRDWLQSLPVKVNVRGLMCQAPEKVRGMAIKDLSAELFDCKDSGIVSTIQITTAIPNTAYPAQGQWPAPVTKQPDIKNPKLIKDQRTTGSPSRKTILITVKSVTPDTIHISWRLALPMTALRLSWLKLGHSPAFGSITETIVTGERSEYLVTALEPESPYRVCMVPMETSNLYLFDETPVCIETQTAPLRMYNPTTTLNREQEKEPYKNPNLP

[1] = target: T2, FLRT2 bait (Fc fusion) (mouse) (UniProt Q8BLU0); assay: as above
T2 sequence: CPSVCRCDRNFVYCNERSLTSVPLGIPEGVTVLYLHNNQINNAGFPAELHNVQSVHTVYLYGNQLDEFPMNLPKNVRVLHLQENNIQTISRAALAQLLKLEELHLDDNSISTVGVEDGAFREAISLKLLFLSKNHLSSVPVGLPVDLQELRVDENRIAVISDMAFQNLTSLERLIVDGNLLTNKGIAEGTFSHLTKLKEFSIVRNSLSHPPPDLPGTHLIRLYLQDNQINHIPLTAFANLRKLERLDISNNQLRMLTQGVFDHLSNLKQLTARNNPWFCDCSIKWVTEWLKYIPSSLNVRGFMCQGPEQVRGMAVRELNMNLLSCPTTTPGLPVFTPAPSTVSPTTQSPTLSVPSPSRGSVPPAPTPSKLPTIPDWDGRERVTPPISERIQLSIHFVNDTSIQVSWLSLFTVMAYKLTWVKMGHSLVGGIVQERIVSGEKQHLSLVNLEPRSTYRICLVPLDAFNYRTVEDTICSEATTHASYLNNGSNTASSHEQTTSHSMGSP

[2] = target: T3, Frizzled4 on HEK293T cells (UniProt Q61088); assay: alkaline phosphatase fusion binding to live cells (AP histochemistry); AP fusion in ice-cold serum-free conditioned medium on live transfected HEK293T cells, 2 hr at 4°C
T3 sequence: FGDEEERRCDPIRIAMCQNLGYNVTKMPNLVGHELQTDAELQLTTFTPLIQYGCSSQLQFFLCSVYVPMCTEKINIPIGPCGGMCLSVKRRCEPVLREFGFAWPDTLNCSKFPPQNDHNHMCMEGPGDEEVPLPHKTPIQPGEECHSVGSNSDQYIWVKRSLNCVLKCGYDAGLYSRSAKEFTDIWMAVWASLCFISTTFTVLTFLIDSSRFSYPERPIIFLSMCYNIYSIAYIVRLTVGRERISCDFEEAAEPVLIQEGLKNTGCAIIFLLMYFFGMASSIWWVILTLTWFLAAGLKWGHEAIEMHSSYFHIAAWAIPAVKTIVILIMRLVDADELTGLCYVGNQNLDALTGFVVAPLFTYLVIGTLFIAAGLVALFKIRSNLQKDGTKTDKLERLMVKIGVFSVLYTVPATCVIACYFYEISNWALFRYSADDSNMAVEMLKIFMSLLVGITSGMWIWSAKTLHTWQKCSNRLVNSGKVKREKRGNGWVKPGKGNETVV

FGF21-Fc (human) = FGF21-Fc (human) (UniProt Q9NSA1); assay: ACAPseq (affinity capture of polyribosomes followed by RNAseq); bait-Fc (~10 ug) on Protein-G magnetic beads; 40 ug neonatal mouse brain polyribosomes in 600 ul binding buffer (25 mM Tris pH 7.5, 150 mM KCl, 15 mM MgCl2, 1 mM CaCl2, 250 mM sucrose, 0.5% Igepal-630, 0.5% sodium deoxycholate, cyclohexamide, heparin), overnight at 4°C; captured mRNA sequenced; only the target purified
LRTM2-Fc (mouse) = target: T4, LRTM2-Fc (mouse) (UniProt Q8BGX3); assay: as above
T4 sequence: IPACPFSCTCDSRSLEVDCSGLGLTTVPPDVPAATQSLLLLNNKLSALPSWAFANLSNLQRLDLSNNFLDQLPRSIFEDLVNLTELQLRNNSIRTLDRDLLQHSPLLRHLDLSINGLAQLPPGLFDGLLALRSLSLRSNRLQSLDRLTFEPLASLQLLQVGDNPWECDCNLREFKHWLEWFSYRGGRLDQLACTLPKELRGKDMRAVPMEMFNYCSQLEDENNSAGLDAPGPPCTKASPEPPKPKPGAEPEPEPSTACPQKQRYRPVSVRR

| binding (FLRT3-Fc (mouse)) | binding (LRTM2-Fc (mouse)) | Substance | further results |
| --- | --- | --- | --- |
| binds | – | Adhesion G protein-coupled receptor L3 (nascent polypeptide on polyribosomes) (from UniProt Q80TS3 20-1537) | binding [1]: binds |
| – | – | Norrin-AP (from UniProt Q00604 25-133) (ligand) | binding [2]: binds |
| – | – | PLEC (nascent polypeptide on polyribosomes) (from UniProt Q9QXS1 1-4691) | binding (FGF21-Fc (human)): no binding |
| binds | – | Polybromo-1 (nascent polypeptide on polyribosomes) (from UniProt Q8BSQ9 1-1634) | – |
| – | binds | TNC (nascent polypeptide on polyribosomes) (from UniProt Q80YX1 23-2110) | – |
| – | binds | TNN (nascent polypeptide on polyribosomes) (from UniProt Q80Z71 27-1560) | – |
